The list shows only some results of the screen, not a fair sample: its compounds were picked by chemical class. Not every dose and run of a compound is shown. T/C gives the treated animals as a percentage of the vehicle group. For survival time, the PubChem record calls one and a half times the control and up active, and a quarter to a half above the control has no call in these data; cut-offs in other NCI protocols can differ. Some T/C values are marked as having no survivor count here; that says nothing about deaths at the dose. Schedules are NCI's codes, taken here to give the interval after Q, in days (D) or hours (H), and the number of doses after X. Some doses were run more than once; their values stand side by side, smallest first.
System: Lymphosarcoma Mecca ip in C3AKF1 mice, survival T/C%
Assay: NCI In Vivo Anticancer Drug Screen. Data for tumor model Lymphosarcoma Mecca (intraperitoneal) in C3AKF1 (CHKRF1) mice
Conditions: T/C endpoint: survival time, mean or median, schedule: Q01DX010 (ip), vehicle: saline, higher T/C = longer survival
Description: The antitumor activity of compounds was measured in mice bearing transplantable tumors. Survival or tumor size were measured and the results are expressed as the measurement made in the treated group (T) divided by the measurement made in the vehicle treated control group (C). The tumor model used in this assay is Lymphosarcoma Mecca (intraperitoneal) in C3AKF1 (CHKRF1) mice

SMILES: ClCCNCCCl
- T/C (dose: 18.8 mg/kg/injection): 116 [survivor count not shown] and 233 % of control [survivor count not shown]

SMILES: NC1CCCCC1.NP(=O)(O)N(CCCl)CCCl
- T/C (dose: 15.6 mg/kg/injection): 141 [survivor count not shown] and 155 % of control [survivor count not shown]
- T/C (dose: 31.3 mg/kg/injection): 155 [survivor count not shown] and 160 % of control [survivor count not shown]
- T/C (dose: 62.5 mg/kg/injection): 103 [survivor count not shown] and 150 % of control [survivor count not shown]

SMILES: CC(C(=O)O)N(CCCl)CCCl (stereo unspecified)
- T/C (dose: 0.5 mg/kg/injection): 128 % of control [survivor count not shown]
- T/C (dose: 1.0 mg/kg/injection): 133 % of control [survivor count not shown]
- T/C (dose: 2.0 mg/kg/injection): 157 % of control [survivor count not shown]
- T/C (dose: 4.0 mg/kg/injection): 104 % of control [survivor count not shown]

SMILES: NC(Cc1cccc(N(CCCl)CCCl)c1)C(=O)O (stereo unspecified)
- T/C (dose: 0.63 mg/kg/injection): 120 [survivor count not shown] and 140 % of control [survivor count not shown]
- T/C (dose: 1.25 mg/kg/injection): 136 [survivor count not shown] and 150 % of control [survivor count not shown]
- T/C (dose: 2.5 mg/kg/injection): 154 [survivor count not shown] and 185 % of control [survivor count not shown]
- T/C (dose: 5.0 mg/kg/injection): 110 [survivor count not shown] and 127 % of control [survivor count not shown]

SMILES: ClCCN(CCCl)Cc1nc2ccccc2[nH]1
- T/C (dose: 1.25 mg/kg/injection): 95 % of control [survivor count not shown]
- T/C (dose: 2.5 mg/kg/injection): 130 [survivor count not shown] and 135 % of control [survivor count not shown]
- T/C (dose: 5.0 mg/kg/injection): 135 [survivor count not shown] and 165 % of control [survivor count not shown]
- T/C (dose: 10.0 mg/kg/injection): 105 [survivor count not shown] and 130 % of control [survivor count not shown]

Source: PubChem BioAssay AID304 (DTP/NCI, 2004)
